The structures appear in SMILES notation. The list shows a part of the results. Further columns of the screen follow, without active or inactive calls. Compounds called inactive in the main read-out are mostly missing here. Potencies come from curve fits of mixed quality, noted in brackets.

This is an account of results in PubChem BioAssay AID2685 (National Center for Advancing Translational Sciences (NCATS), 2010).

The nature of this assay: qHTS Assay for Lipid Storage Modulators in Drosophila S3 Cells.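 For cell number change: cells counted by Cell Tracker Red CMTPX staining in the red channel.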 The settings on record: BODIPY lipid droplet fluorescence, 18-24 h; for cell number change: measured here: cell count max response, cells fed with added oleic acid. The procedure, abridged:
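Laser-scanning cytometry quantifies lipid droplet accumulation (500–530 nm total intensity; droplet/cell object ratio) in oleic acid-fed (400 uM added) Drosophila S3 cells treated with a concentration series. 20 uM Triacsin C defined 100% inhibition.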
A general note: Quantitative high-throughput screening tests each substance at several concentrations.

Where [1] appears, read: measured here: lipid fluorescence (Fed channel) AC50, cells fed with added oleic acid.
The mark [2] stands for this setting: measured here: cell number channel AC50, cells fed with added oleic acid.

By AC50 is commonly meant the concentration giving half of the maximal activity seen. A lower AC50 goes with greater potency. On to `O=C(CSc1nc2ccccc2c(=O)[nH]1)Nc1ccc(N2CCOCC2)c(Cl)c1`, for which the cell number change was found to be 8.57%. The AC50 under setting [1] is 6.51 µM [falling, single point].

With `CCCc1cc(=O)oc2cc(C)cc(OCC(=O)NCCCN3CCOCC3)c12`, the cell number change was -2.97%. The AC50 under setting [1] is 29.1 µM [rising, single point].

As for `COc1cc(OC)cc(C(=O)NC(C(=O)OCn2nnc3ccccc3c2=O)C(C)C)c1` (centres undefined), the cell number change is -0.774%. Further, the AC50 under setting [1] is 6.51 µM [falling, single point].

In the case of `COc1ccccc1C(=O)n1nc(-c2ccc(Cl)cc2)nc1N`, the cell number change is -72.6%. The AC50 under setting [2] is 11.6 µM [falling, partial curve]. The AC50 under setting [1] is 29.1 µM [falling, single point].

`O=C(CNC(=O)c1ccccc1)N/N=C/c1cn[nH]c1-c1ccccc1`: the cell number change is 5.51%. The AC50 under setting [1] was 6.51 µM [rising, single point].

Regarding `CN(C)S(=O)(=O)c1cccc(NC(=O)c2cccc(S(=O)(=O)N3CCCCCC3)c2)c1`, the AC50 under setting [1] is 3.66 µM [falling, full curve].

With `COCCN(C(=O)Cc1cccs1)C(C(=O)NCc1ccc(OC)cc1)c1ccc(OC)cc1` (centres undefined), the cell number change was -7.21%. In addition, the concentration at half-maximal activity (AC50) under setting [2] is 3.66 µM [falling, single point]. Also, the AC50 under setting [1] is 29.1 µM [falling, single point].

For `Cc1nnc(SCC(=O)Nc2cc(S(=O)(=O)N3CCCC3)ccc2Cl)n1C1CC1`, the cell number change was 0.98%. The AC50 under setting [2] was 0.13 µM [rising, full curve, poor fit]. The AC50 under setting [1] was 0.146 µM [rising, full curve, poor fit].

With `O=C(OCCc1cc2ccccc2c(=O)o1)c1ccc2c(c1)OCO2`, the cell number change was -43.7%. Further, the AC50 under setting [2] was 1.16 µM [falling, full curve]. In addition, the AC50 under setting [1] was 0.82 µM [falling, single point].

`CSc1ccc(N2CCN(CCCNC(=O)Nc3ccccc3F)CC2)cc1`: the cell number change is 81.5%. The AC50 under setting [2] is 14.6 µM [rising, partial curve, poor fit]. Moreover, the AC50 under setting [1] is 29.1 µM [rising, single point].

As for `O=S(=O)(c1ccc2c(c1)OCCO2)N1CCN(c2nc3ccccc3s2)CC1`, the cell number change was 16.6%. Also, the AC50 under setting [1] was 13 µM [rising, single point].

Take `COc1cc(/C=N/n2c(-c3cc(C)[nH]n3)n[nH]c2=S)cc(OC)c1OC`: the cell number change was -23.6%. Under setting [2], the AC50 is 0.146 µM [falling, full curve, poor fit]. The AC50 under setting [1] was 0.184 µM [falling, full curve, poor fit].

Turning to `O=C(CSc1nnc(-c2csc3c2CCCC3)o1)Nc1ccccc1`, the cell number change is -74.4%. Also, the AC50 under setting [2] is 20.6 µM [falling, single point]. In addition, under setting [1], the AC50 was 16.4 µM [falling, single point].

In the case of `N#CC1=C(N)Oc2cc(O)ccc2C1c1cccnc1` (centres undefined), the AC50 was 0.461 µM [rising, single point] under setting [2] and 0.146 µM [rising, full curve] under setting [1].

For `COc1cccc2c(=O)n(CC(=O)N3CCCCCC3)ccc12`, the AC50 is, setting by setting: under setting [2], 5.17 µM [falling, single point]; under setting [1], 5.8 µM [falling, single point].

`COc1cccc(N2CC(C(=O)NC3CCCCC3)CC2=O)c1` (centres undefined): the cell number change is -9.88%. Besides, under setting [2], the AC50 is 0.259 µM [rising, full curve, poor fit].

Consider `O=C(c1ccc(Cl)nc1)N1CCC(Cc2ccccc2)CC1`, for which the cell number change was -4.46%.

In the case of `O=C(N=c1ccn(-c2nc3ccccc3nc2NS(=O)(=O)c2ccc(Cl)cc2)cc1)c1ccccc1Cl`, the cell number change is -7.62%. Moreover, the AC50 under setting [1] was 0.0731 µM [falling, full curve, poor fit].

Take `O=C(Nc1nc(-c2ccccc2)nc2ccccc12)c1ccc(F)cc1`: the AC50 under setting [1] was 6.51 µM [rising, single point].

As to `Clc1ccc(OCCCCN2CCCCC2)cc1`, the cell number change is -22.2%.

For `CCc1ccccc1OCC(=O)Nc1ccc(S(N)(=O)=O)cc1`, the cell number change was -4.67%. Under setting [1], the AC50 is 9.2 µM [rising, partial curve].

`CCC(Oc1ccccc1)C(=O)Nc1ccccc1OC` (centres undefined): the cell number change is 12.7%. In addition, under setting [1], the AC50 is 0.651 µM [falling, single point].

Turning to `COc1ccccc1CNC1CCCc2ccccc21` (centres undefined), the cell number change is -0.794%. Besides, the AC50 under setting [1] is 23.1 µM [rising, partial curve].

Regarding `CC(=O)O/N=C/c1c(N2CCOCC2)n(C)c2ccccc12`, the cell number change came to 12.6%.

On to `Oc1ccccc1/C=N/NC(=S)NC1CC2CC1C1C=CCC21` (centres undefined), for which the cell number change was -59%. Moreover, the AC50 under setting [2] was 29.1 µM [falling, single point]. The AC50 under setting [1] was 32.6 µM [falling, single point].

In the case of `O=C(COc1ccccc1[N+](=O)[O-])Nc1ccc2c(c1)CCC2`, the cell number change was -26.1%. For the same compound, under setting [1], the AC50 was 0.00411 µM [rising, full curve, poor fit].

Turning to `Cc1cccc(N2CCN(C(=O)CCc3nc4ccccc4[nH]3)CC2C)c1` (centres undefined), the cell number change is 5.88%. In addition, the AC50 under setting [1] was 1.3 µM [rising, partial curve].

Take `O=C(c1ccccc1-c1nc(-c2ccccc2)no1)N1CCOCC1`: the cell number change stood at 58.7%. In addition, the AC50 under setting [2] is 13 µM [rising, partial curve, poor fit]. Moreover, the AC50 under setting [1] is 6.51 µM [falling, single point].

Take `Cc1ccc(S(=O)(=O)Nc2ccc(-c3nnc(SCC#N)n3C)cc2)cc1`: the cell number change stood at 19.5%. The AC50 under setting [1] was 29.1 µM [rising, single point].

As to `CC(C)C[C@H](NC(=O)c1nc[nH]c1C(=O)N[C@@H](CC(C)C)C(=O)OCc1ccccc1)C(=O)OCc1ccccc1`, the cell number change was found to be 70.7%. Besides, the AC50 under setting [2] was 20.6 µM [rising, single point].

Turning to `CC(C)(C)C1(c2ccccc2)NC(=O)N(CC(=O)N2CCOCC2)C1=O` (centres undefined), the cell number change is 5.52%.

On to `Cc1ccccc1SCC(=O)N/N=C/c1ccc(F)cc1`, for which the cell number change is -28%. Moreover, the half-maximal activity concentration (AC50) under setting [1] was 29.1 µM [falling, single point].

On to `Cc1ccc(/C=C(/C#N)C(=O)NC(=O)Oc2ccccc2)cc1`, for which the cell number change came to 5.95%. The AC50 under setting [1] was 29.1 µM [falling, single point].

In the case of `O=C(c1cccc(S(=O)(=O)NCc2ccccc2)c1)N1CCN(c2ccc(F)cc2)CC1`, the cell number change was found to be 29%. Further, the AC50 under setting [1] is 0.411 µM [rising, partial curve].

For the compound `CC(C)CCNC(=O)Cn1c(=O)oc2cc(S(=O)(=O)N3CC(C)CC(C)C3)ccc21` (centres undefined), the cell number change was -29.5%. For the same compound, under setting [1], the AC50 was 11.6 µM [falling, partial curve, poor fit].

For `COc1ccc(S(=O)(=O)N2Cc3ccccc3CC2C(=O)O)cc1` (centres undefined), under setting [1], the AC50 was 3.26 µM [falling, partial curve].

As to `CN(c1ccc(C(=O)N2CCN(Cc3ccc4c(c3)OCO4)CC2)cc1)S(C)(=O)=O`, the cell number change was -9.84%. Besides, the AC50 under setting [1] is 6.51 µM [falling, single point].

For the compound `N#Cc1ccccc1S(=O)(=O)N1CCN(C(=O)C2COc3ccccc3O2)CC1` (centres undefined), the cell number change was 6.32%. Moreover, under setting [1], the AC50 was 0.00461 µM [rising, full curve, poor fit].

As for `COc1ccc(NC2CCCN(C(=O)c3ccc4nccnc4c3)C2)cc1OC` (centres undefined), the cell number change amounted to 7.8%. Besides, the AC50 under setting [1] is 6.51 µM [falling, single point].

`CN(C(=O)c1ccncc1)c1nnc(-c2ccncc2)s1`: the cell number change is 4.73%. Moreover, under setting [1], the AC50 is 2.31 µM [falling, partial curve, poor fit].

Consider `CCOC(=O)c1c(N)n(-c2ccc(N)cc2)c2nc3ccccc3nc12`, for which the AC50 under setting [1] was 1.84 µM [rising, single point].

For the compound `COc1cc(/C=C2\SC(=S)N(Nc3ccccc3)C2=O)cc(OC)c1OC`, the cell number change worked out at 8.92%. In addition, the AC50 under setting [1] is 20.6 µM [rising, partial curve].

As to `NC(=S)N/N=C\c1ccc(-c2cccc(Cl)c2Cl)o1`, the AC50 was 2.91 µM [rising, partial curve] under setting [2] and 0.231 µM [rising, full curve] under setting [1].

With `CCOC(=O)C(=CNc1ccc(N2CCOCC2)cc1)C(=O)OCC`, the cell number change was -48.1%. Also, the AC50 under setting [2] is 0.00461 µM [falling, full curve, poor fit]. For the same compound, under setting [1], the AC50 is 18.4 µM [falling, partial curve, poor fit].

Regarding `COc1ccc(-c2nnc(CSc3nc4ccccc4c(=O)n3C)o2)cc1OC`, the cell number change turned out to be 13.4%.

With `O=[N+]([O-])c1ccc(Sc2cccc[n+]2[O-])c2nonc12`, the cell number change was -45.6%. For the same compound, under setting [2], the AC50 is 3.66 µM [falling, full curve]. In addition, the AC50 under setting [1] is 2.31 µM [falling, full curve].

On to `CCC(=O)Nc1cc(OC)c(NC(=O)c2ccccc2)cc1OC`, for which the AC50 runs as follows: under setting [2], 2.31 µM [rising, partial curve]; under setting [1], 0.0651 µM [rising, full curve, poor fit].

`Cc1cc(C(=O)Nc2cccc3ccccc23)co1`: the cell number change was determined as 2.27%. Besides, under setting [1], the AC50 was 0.58 µM [rising, single point].

`COc1cc(C(=O)N2CCC(C(=O)Nc3cccc(C(C)=O)c3)CC2)cc(OC)c1OC`: the cell number change was -0.722%. Further, the AC50 under setting [1] was 0.0651 µM [falling, full curve, poor fit].

On to `CCOP(=O)(c1ccccc1)C1(C#N)CC1` (centres undefined), for which the cell number change is 12.4%. Further, under setting [2], the AC50 is 2.91 µM [falling, single point].

Consider `CCOC(=O)N1CCC(C(=O)NNC(=O)c2ccc(Cl)cc2Cl)CC1`, for which the cell number change came out at 21.2%. In addition, under setting [1], the AC50 was 0.92 µM [rising, full curve].

As for `O=C(O)c1ccc(-n2nnnc2Oc2ccccc2C(=O)N2CCOCC2)cc1`, the cell number change was found to be 0.811%. In addition, the AC50 under setting [1] is 4.11 µM [falling, single point].

Take `Cc1ccccc1-n1c(SCC(=O)Nc2cccc3ccccc23)nc(O)cc1=O`: the cell number change is -5.34%.

Consider `CCCCCC(=O)N1CCN(CCN=CC2=C(O)CC(c3ccco3)CC2=O)CC1` (centres undefined), for which the cell number change amounted to 14.3%. For the same compound, under setting [1], the AC50 was 18.4 µM [rising, single point].

For `CCOC(=O)C1CCCN(Cc2nc(Cc3cccc(F)c3)no2)C1` (centres undefined), the cell number change is 24.1%. Also, under setting [1], the half-maximal activity concentration (AC50) was 14.6 µM [rising, partial curve, poor fit].

For the compound `O=C(O)C(Cc1c[nH]c2ccccc12)NS(=O)(=O)c1cccc(Cl)c1Cl` (centres undefined), the cell number change is 17.6%. For the same compound, the AC50 under setting [1] was 13 µM [rising, partial curve, poor fit].

Turning to `CNC(=O)COC(=O)c1cc(-c2ccc(OC)cc2)nc2ccccc12`, the half-maximal activity concentration (AC50) under setting [1] was 16.4 µM [rising, single point].
